In PMC11033462:
Results are given in words; binding and its absence hold for the method and conditions named. In cells and extracts the contact can be indirect. Some binding calls cover weakened binding; strength is not graded here. Where a sequence is shown, tags or fusion partners need not be part of it.

Columns and labels:
Assay in all cases: co-IP; Myc-PLAA overexpressed in HEK293T, captured from cleared lysate on Myc-beads (4°C, 2 h), eluate probed by western blot (anti-VCP, anti-SAKS1, anti-MYC); p97 band divided by the Myc-PLAA band
[1] = target: PLAA p.Ile609Thr, Myc-tagged (human) (UniProt Q9Y263)
[2] = target: PLAA p.Leu795Met, Myc-tagged (human) (UniProt Q9Y263)
[3] = target: Phospholipase-A2-Activating-Protein (PLAA), wild type, Myc-tagged (human) (UniProt Q9Y263)

Measured: binding

B1: UBXN1 (protein, UniProt Q04323 1-297)
chain: MAELTALESLIEMGFPRGRAEKALALTGNQGIEAAMDWLMEHEDDPDVDEPLETPLGHILGREPTSSEQGGLEGSGSAAGEGKPALSEEERQEQTKRMLELVAQKQREREEREEREALERERQRRRQGQELSAARQRLQEDEMRRAAEERRREKAEELAARQRVREKIERDKAERAKKYGGSVGSQPPPVAPEPGPVPSSPSQEPPTKREYDQCRIQVRLPDGTSLTQTFRAREQLAAVRLYVELHRGEELGGGQDPVQLLSGFPRRAFSEADMERPLQELGLVPSAVLIVAKKCPS
binds: all assays above
